Measured values taken from the supplement of paper PMC7125110.
± gives the standard error. Many of these values have a large error.

B1: glmS ribozyme (parent)
chain: AUAAAAGCGCCAGAACUACAGAAAUGUAGUUGACGAGGAGGAGGUUUAUCGAAUUUUCGGCGGAUGCCUCCAAA

Variants of: B1
Assay: self-cleavage kobs at 40 uM GlcN6P; higher = faster cleavage; RNA array
Conditions: with glucosamine-6-phosphate
Procedure, shortened: (§1)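 Tracking of barcoded ribozyme variants used a hybridised Cy3 probe at 37 °C, after in situ transcription by E. coli RNA polymerase on sequenced MiSeq chips. The flowed solution held 40 μM to 10 mM glucosamine-6-phosphate in HEPES/KCl/Mg(OAc)2 buffer, and imaging ran over ~14 h. kobs was taken from exponential decay fits of normalised per-tile medians, and kcat and KM from weighted Michaelis–Menten fits.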

Row | Variant | self-cleavage kobs at 40 uM GlcN6P
1 | G9C C50G | 0.000491 ± 0.00026 s⁻¹
2 | A6U C10G G62U C67G C71G | 4.02e-05 ± 2.5e-05 s⁻¹
3 | C50U U69G | 2.12e-05 ± 1.4e-05 s⁻¹
4 | C10A C16G C50A C58G C61U | 3.7e-05 ± 2.1e-05 s⁻¹
5 | A36G G38U C68G | 2.79e-05 ± 2.4e-05 s⁻¹

Variants of: B1
Assay: self-cleavage kobs at 2500 uM GlcN6P; higher = faster cleavage; RNA array
Conditions: with glucosamine-6-phosphate
Procedure, shortened: as §1

Row | Variant | self-cleavage kobs at 2500 uM GlcN6P
6 | G9C C50G | 2.24e-05 ± 1.8e-05 s⁻¹
7 | C11G C16A C50G U65G | 4.75e-05 ± 3.1e-05 s⁻¹
8 | A14G U31G G40C A52G | 4.72e-05 ± 2.8e-05 s⁻¹
9 | C10U C11U A12G | 3.29e-05 ± 2e-05 s⁻¹
10 | G29U G38A G59A C67A U69G | 3.21e-05 ± 1.9e-05 s⁻¹
11 | A12U U30A G44U C71U | 2.43e-05 ± 2.3e-05 s⁻¹
12 | U49C C50A C70A | 2.65e-05 ± 2.6e-05 s⁻¹
13 | A6G U45G | 2.67e-05 ± 2.5e-05 s⁻¹
14 | U49A A52G C68U | 2.83e-05 ± 2e-05 s⁻¹
15 | C10A G13C C61G G66A C70A | 7.1e-05 ± 4.2e-05 s⁻¹
16 | C16A U47C | 4.36e-05 ± 3.6e-05 s⁻¹
17 | G43C U55G U56G C67G | 4.49e-05 ± 2.6e-05 s⁻¹
18 | U54C C68A | 3.25e-05 ± 1.7e-05 s⁻¹
19 | U57A G63U C70A | 4.26e-05 ± 2.9e-05 s⁻¹
20 | G13A G37A | < 1e-05 s⁻¹
21 | C10U A12U C50A C68G | 3.5e-05 ± 2e-05 s⁻¹
22 | U30A A52U U69G | 2.99e-05 ± 2.3e-05 s⁻¹
23 | A36G G38U C68G | 5.42e-05 ± 3.2e-05 s⁻¹
24 | C11G G37C C50G A53U | 3.19e-05 ± 2.9e-05 s⁻¹
25 | A52U U57G | 2.12e-05 ± 1.9e-05 s⁻¹
26 | U31C G37C C70A | 3.57e-05 ± 2.9e-05 s⁻¹

Look-ups from the results shown:
Value for G13A G37A under self-cleavage kobs at 2500 uM GlcN6P: < 1e-05 s⁻¹
Value for C10U A12U C50A C68G under self-cleavage kobs at 2500 uM GlcN6P: 3.5e-05 ± 2e-05 s⁻¹

Variants of: B1
Assay: self-cleavage kobs at 10000 uM GlcN6P; higher = faster cleavage; RNA array
Conditions: with glucosamine-6-phosphate
Procedure, shortened: as §1

Row | Variant | self-cleavage kobs at 10000 uM GlcN6P
27 | G9C C50G | 0.00164 ± 0.0015 s⁻¹
28 | C10U C11U A12G | 2.05e-05 ± 1.2e-05 s⁻¹
29 | C10A C16G C50A C58G C61U | 2.69e-05 ± 1.7e-05 s⁻¹

Variants of: B1
Assay: self-cleavage kobs at 640 uM GlcN6P; higher = faster cleavage; RNA array
Conditions: with glucosamine-6-phosphate
Procedure, shortened: as §1

Row | Variant | self-cleavage kobs at 640 uM GlcN6P
30 | G13U G37A | 3.28e-05 ± 3.1e-05 s⁻¹
31 | G29U G38A G59A C67A U69G | 2.81e-05 ± 2.6e-05 s⁻¹
32 | C50U U69G | 2.54e-05 ± 1.7e-05 s⁻¹
33 | G41U A42G C70A | 0.0126 ± 0.0084 s⁻¹
34 | U54G G59U | 2.38e-05 ± 2.1e-05 s⁻¹
35 | G63U A64U U69G C70G | 3.45e-05 ± 1.9e-05 s⁻¹
36 | U54C C68A | 2.31e-05 ± 1.6e-05 s⁻¹
37 | U46G C50U U69A | 3.62e-05 ± 2.2e-05 s⁻¹
38 | U57A G63U C70A | 2.97e-05 ± 3e-05 s⁻¹
39 | U57A U69C | 2.27e-05 ± 1.7e-05 s⁻¹
40 | G29A C58U U65G U69C | 3.25e-05 ± 2e-05 s⁻¹
41 | G29C U45C | 2.25e-05 ± 1.4e-05 s⁻¹
42 | A14C U45A U57A | 2.22e-05 ± 2.1e-05 s⁻¹
43 | A52U U57G | 3.12e-05 ± 1.9e-05 s⁻¹

Variants of: B1
Assay: self-cleavage kobs at 160 uM GlcN6P; higher = faster cleavage; RNA array
Conditions: with glucosamine-6-phosphate
Procedure, shortened: as §1

Row | Variant | self-cleavage kobs at 160 uM GlcN6P
44 | C34G U69A | 1.78e-05 ± 1.7e-05 s⁻¹
45 | G7U A53G U69G | 0.000467 ± 0.00029 s⁻¹
46 | U30C G32C | 3.89e-05 ± 2e-05 s⁻¹
